From article doi:10.1101/2023.01.28.526013

Amino acid sequences for entries named in this document (tags omitted). Residues count along the entry.
UniProt P25311, residues 21-298: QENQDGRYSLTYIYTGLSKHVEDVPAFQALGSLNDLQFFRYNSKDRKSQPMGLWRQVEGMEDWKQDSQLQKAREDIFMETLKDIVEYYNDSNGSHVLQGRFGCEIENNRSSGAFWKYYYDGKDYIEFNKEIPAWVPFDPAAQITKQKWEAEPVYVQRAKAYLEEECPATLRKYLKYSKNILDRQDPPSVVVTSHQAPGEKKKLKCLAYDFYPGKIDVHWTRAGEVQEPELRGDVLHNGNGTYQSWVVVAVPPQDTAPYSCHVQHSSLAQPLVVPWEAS

Molecular target: T1, MIIP fused with Streptavidin tag (S) and FLAG tag (F), pcDNA3.1(+) (UniProt Q5JXC2)
T1 sequence: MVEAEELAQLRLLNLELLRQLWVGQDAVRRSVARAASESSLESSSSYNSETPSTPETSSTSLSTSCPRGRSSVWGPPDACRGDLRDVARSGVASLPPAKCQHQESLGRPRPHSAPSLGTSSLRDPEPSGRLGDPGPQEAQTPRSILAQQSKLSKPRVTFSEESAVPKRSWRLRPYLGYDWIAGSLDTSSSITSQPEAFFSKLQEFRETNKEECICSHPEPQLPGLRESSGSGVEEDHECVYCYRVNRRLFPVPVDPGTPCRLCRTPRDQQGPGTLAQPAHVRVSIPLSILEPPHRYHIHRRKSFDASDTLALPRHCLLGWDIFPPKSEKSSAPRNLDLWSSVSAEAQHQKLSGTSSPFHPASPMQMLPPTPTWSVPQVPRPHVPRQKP
Assay: affinity purification with mass spectrometry

Substance: alpha-2-glycoprotein 1, zinc-binding (AZGP1), endogenous (from UniProt P25311 21-298)
- binding: binds

No constants are given. Whether binding was seen depends on the method and setting. Binding seen in cells or lysates may run through a third protein. Here binding means that the protein was enriched with, or labelled near, the bait; the list need not be complete. Tags and fused reporters may be left off the sequences shown.
